In article PMC6989403:
No constants are given. Whether binding was seen depends on the method and setting. Binding seen in cells or lysates may run through a third protein. Some results given as binding are weak or reduced against the parent protein; the word gives no strength. For part of these data: Where a sequence is shown, tags or fusion partners need not be part of it.

What was measured:
[1] = molecular target: T1, Myc-tagged LATS1 (large tumor suppressor kinase 1), wild type (human) (UniProt O95835); experiment: co-IP; HEK293 cells co-transfected with Flag-PMEPA1a and Myc-LATS1 constructs; IP with anti-Flag or anti-Myc; RIPA lysate, antibody overnight at 4 °C, Protein A/G magnetic beads; western blot
T1 sequence: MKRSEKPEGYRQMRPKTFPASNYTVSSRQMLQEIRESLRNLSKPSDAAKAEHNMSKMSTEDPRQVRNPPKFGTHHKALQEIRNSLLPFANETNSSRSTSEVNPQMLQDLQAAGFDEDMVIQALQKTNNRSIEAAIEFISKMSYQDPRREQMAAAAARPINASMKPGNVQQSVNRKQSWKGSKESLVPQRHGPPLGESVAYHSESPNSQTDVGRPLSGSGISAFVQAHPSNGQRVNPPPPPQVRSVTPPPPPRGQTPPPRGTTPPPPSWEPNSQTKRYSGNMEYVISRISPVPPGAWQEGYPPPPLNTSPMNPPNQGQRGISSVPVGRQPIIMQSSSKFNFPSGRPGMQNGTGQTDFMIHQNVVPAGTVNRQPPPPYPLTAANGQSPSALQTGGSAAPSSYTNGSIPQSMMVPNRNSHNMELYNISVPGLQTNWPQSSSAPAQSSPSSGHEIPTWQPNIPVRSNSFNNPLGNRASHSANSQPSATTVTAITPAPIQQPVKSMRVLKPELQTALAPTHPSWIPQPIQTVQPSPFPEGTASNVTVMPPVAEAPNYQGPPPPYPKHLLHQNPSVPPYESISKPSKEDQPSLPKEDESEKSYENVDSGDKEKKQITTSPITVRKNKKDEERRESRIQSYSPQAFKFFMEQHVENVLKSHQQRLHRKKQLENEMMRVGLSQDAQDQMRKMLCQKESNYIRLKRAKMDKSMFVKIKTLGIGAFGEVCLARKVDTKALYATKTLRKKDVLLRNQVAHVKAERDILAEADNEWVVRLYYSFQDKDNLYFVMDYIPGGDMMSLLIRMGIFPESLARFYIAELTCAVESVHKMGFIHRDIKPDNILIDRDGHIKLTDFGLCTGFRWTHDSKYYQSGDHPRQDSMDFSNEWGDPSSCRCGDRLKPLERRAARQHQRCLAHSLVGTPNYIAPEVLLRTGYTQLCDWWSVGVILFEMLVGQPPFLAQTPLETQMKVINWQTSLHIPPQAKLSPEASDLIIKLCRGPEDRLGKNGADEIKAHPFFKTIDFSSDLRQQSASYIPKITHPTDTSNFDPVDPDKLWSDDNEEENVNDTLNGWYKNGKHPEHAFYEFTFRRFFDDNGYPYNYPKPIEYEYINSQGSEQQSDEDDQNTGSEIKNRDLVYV

[2] = molecular target: T2, LATS1, endogenous (human (endogenous in U87MG, U251, GBM#P3, HEK293)) (UniProt O95835); experiment: co-IP; endogenous proteins in GBM#P3 cells; western blot
T2 sequence: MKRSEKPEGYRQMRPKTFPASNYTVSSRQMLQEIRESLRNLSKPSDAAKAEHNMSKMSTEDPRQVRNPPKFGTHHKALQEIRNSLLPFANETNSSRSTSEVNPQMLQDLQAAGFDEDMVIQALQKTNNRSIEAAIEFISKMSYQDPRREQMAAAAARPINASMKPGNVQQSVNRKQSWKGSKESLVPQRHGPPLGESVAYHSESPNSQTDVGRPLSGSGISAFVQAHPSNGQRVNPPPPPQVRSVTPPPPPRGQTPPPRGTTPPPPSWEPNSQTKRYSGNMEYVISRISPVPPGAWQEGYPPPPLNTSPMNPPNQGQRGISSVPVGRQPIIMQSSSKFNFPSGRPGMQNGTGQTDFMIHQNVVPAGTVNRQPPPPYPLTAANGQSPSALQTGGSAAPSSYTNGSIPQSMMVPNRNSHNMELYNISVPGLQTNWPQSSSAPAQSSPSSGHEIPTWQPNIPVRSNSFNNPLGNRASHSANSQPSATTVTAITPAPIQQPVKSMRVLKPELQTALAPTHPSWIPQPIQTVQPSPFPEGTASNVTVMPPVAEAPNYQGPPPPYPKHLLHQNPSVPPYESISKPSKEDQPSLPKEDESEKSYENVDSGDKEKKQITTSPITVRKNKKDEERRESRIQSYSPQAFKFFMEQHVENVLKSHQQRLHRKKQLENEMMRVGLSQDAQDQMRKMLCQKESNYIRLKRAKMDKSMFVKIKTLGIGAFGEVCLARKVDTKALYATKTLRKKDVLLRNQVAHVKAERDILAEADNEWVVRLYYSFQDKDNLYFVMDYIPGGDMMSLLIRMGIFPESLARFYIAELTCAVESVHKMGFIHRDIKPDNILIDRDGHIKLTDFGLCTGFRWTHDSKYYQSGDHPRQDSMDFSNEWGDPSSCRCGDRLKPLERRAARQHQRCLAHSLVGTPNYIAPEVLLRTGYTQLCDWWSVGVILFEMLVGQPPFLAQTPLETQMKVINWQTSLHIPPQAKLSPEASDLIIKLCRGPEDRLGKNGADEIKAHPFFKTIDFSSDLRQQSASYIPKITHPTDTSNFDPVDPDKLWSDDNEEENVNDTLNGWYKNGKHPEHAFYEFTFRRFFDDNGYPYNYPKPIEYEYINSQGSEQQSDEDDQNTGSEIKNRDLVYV

[3] = molecular target: T2, LATS1, endogenous (human (endogenous in U87MG, U251, GBM#P3, HEK293)); experiment: co-IP; endogenous proteins in parental U251 and U87MG cells; IP with PMEPA1 or LATS1 antibody; RIPA lysate; western blot

B1: Flag-tagged PMEPA1a (prostate transmembrane protein, androgen induced 1, isoform a), wild type (protein, UniProt Q969W9 1-287)
chain: MHRLMGVNSTAAAAAGQPNVSCTCNCKRSLFQSMEITELEFVQIIIIVVVMMVMVVVITCLLSHYKLSARSFISRHSQGRRREDALSSEGCLWPSESTVSGNGIPEPQVYAPPRPTDRLAVPPFAQRERFHRFQPTYPYLQHEIDLPPTISLSDGEEPPPYQGPCTLQLRDPEQQLELNRESVRAPPNRTIFDSDLMDSARLGGPCPPSSNSGISATCYGSGGRMEGPPPTYSEVIGHYPGSSFQHQQSSGPPSLLEGTRLHHTHIAPLESAAIWSKEKDKQKGHPL
In the case of B1, the binding [1] is reported as “binds”.

B2: PMEPA1, endogenous in glioma cells (protein, UniProt Q969W9 1-287)
chain: MHRLMGVNSTAAAAAGQPNVSCTCNCKRSLFQSMEITELEFVQIIIIVVVMMVMVVVITCLLSHYKLSARSFISRHSQGRRREDALSSEGCLWPSESTVSGNGIPEPQVYAPPRPTDRLAVPPFAQRERFHRFQPTYPYLQHEIDLPPTISLSDGEEPPPYQGPCTLQLRDPEQQLELNRESVRAPPNRTIFDSDLMDSARLGGPCPPSSNSGISATCYGSGGRMEGPPPTYSEVIGHYPGSSFQHQQSSGPPSLLEGTRLHHTHIAPLESAAIWSKEKDKQKGHPL
B2 was tested, and the binding [2] was “binds” and the binding [3] was “binds”.
